## Primary screen of a compound library

Chains of the proteins cited; added tags and fusions are not shown. Residues count along the entry.
UniProt P9WPC5, whole entry: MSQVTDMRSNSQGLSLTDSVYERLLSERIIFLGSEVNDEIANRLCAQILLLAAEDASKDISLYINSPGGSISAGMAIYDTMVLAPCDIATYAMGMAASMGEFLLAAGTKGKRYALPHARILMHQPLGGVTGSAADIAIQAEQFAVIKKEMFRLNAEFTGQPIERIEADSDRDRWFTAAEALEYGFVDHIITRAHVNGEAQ
UniProt P9WPC3, whole entry partner: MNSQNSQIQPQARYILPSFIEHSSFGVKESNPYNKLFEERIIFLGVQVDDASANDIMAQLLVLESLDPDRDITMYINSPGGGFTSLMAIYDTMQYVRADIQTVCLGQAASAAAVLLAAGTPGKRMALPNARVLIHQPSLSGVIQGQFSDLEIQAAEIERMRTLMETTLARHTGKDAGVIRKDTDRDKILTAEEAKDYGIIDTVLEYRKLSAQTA
UniProt Q8IDJ8, 1-583: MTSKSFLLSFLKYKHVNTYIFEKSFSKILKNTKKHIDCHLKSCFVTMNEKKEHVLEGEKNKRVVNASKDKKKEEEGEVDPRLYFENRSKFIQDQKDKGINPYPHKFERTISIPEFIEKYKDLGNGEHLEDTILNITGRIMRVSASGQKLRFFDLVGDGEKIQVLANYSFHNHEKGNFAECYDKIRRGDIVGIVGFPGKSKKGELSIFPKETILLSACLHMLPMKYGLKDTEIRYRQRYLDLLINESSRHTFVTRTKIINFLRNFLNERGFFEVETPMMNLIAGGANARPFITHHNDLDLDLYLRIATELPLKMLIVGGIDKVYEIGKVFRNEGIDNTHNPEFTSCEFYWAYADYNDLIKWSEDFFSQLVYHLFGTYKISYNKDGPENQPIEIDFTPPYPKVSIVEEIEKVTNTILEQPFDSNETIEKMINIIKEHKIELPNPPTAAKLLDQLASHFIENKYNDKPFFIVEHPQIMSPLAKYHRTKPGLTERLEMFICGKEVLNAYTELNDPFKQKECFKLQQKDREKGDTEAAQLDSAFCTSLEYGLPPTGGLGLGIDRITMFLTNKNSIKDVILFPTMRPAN
UniProt P9WFT3, whole entry: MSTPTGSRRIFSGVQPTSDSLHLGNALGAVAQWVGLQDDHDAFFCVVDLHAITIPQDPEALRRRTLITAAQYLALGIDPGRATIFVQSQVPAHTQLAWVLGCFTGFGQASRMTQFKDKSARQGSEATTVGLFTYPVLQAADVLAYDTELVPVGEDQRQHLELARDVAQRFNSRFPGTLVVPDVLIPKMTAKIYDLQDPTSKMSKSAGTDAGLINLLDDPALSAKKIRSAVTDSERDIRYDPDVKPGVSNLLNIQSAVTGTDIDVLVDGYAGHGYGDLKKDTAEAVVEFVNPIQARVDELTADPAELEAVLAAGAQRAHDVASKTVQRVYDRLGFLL
UniProt A4I591, 1-473: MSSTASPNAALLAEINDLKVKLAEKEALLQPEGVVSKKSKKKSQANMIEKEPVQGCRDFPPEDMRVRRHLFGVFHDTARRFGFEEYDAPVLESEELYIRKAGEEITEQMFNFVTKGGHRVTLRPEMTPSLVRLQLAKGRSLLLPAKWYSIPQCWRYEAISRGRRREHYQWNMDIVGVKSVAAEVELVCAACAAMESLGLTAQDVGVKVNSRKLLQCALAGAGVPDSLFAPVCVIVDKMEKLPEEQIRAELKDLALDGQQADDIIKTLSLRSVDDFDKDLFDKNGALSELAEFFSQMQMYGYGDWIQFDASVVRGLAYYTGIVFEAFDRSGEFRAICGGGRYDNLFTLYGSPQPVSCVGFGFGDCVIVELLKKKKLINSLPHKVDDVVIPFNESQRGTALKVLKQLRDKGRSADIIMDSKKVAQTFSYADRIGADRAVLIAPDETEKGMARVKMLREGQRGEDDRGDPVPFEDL
UniProt Q4DA54, 1-478: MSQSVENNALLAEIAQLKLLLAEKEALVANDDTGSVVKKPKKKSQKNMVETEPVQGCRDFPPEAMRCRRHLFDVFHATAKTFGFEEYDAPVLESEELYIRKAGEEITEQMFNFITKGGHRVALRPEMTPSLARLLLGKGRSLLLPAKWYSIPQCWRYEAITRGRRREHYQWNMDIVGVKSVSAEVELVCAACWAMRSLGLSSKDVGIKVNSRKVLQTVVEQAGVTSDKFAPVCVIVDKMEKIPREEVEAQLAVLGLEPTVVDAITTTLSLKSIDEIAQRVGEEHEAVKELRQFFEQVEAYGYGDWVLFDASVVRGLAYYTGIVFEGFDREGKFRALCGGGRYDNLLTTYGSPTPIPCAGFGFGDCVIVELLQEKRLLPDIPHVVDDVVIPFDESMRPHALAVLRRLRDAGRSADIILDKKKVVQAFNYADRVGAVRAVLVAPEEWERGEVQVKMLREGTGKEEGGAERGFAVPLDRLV

Data taken from ChEMBL document CHEMBL3988442, “University of Dundee, Small-Polar-MMV Screening Library” (2021).

A: 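Protease assay of ClpP1P2, read by the AMC dye that it sets free. Target: ClpP1P2, Mycobacterium tuberculosis (UniProt P9WPC5 and UniProt P9WPC3). Compounds at 50 µM. Direction is inferred from only a few compounds that gave an IC50; most scored high, so higher reads as stronger inhibition. Most other retested compounds had strongly negative values. About 69,000 compounds were tested under these conditions; 0.015% (about 10) showed 50% or more at least once.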
B: 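Enzyme assay of the cytosolic lysyl-tRNA synthetase in 384-well plates, read by luminescence. Target: Lysine-tRNA ligase, Plasmodium falciparum 3D7 (UniProt Q8IDJ8). Compounds at 30 µM. Direction is inferred from only a few compounds that gave an IC50; most scored high, so higher reads as stronger inhibition. Of about 69,000 compounds tested this way, about 49 (0.071%) reached 50% or more in at least one test.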
C: 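Enzyme assay of tryptophanyl-tRNA synthetase; the read-out is not stated. Target: Tryptophan-tRNA ligase, Mycobacterium tuberculosis (UniProt P9WFT3). Tested at 10 µM. Higher most likely means stronger inhibition; the record gives no direction and few retests gave an IC50. Of about 65,000 compounds tested this way, about 64 (0.098%) reached 50% or more in at least one test.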
D: 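Enzyme assay of histidyl-tRNA synthetase; the read-out is not stated. Target: Histidine-tRNA ligase, Leishmania infantum (UniProt A4I591). Concentration: 30 µM. Direction is inferred from retests: higher values go with stronger inhibition. The assay is labelled LdHisRS but filed under L. infantum. Of about 69,000 compounds tested this way, about 410 (0.6%) reached 50% or more in at least one test.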
E: 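Enzyme assay of histidyl-tRNA synthetase; the read-out is not stated. Target: Histidine-tRNA ligase, Trypanosoma cruzi CL Brener (UniProt Q4DA54). Tested at 30 µM. The record gives no direction; compounds that gave an IC50 in retests scored well above the rest, so higher reads as stronger inhibition. Of about 69,000 compounds tested this way, about 31 (0.045%) reached 50% or more in at least one test.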
F: 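Cell assay of Leishmania donovani living inside macrophages; the read-out is not stated. Tested at 30 µM. Higher reads as stronger inhibition (inferred: compounds with an IC50 in retests scored well above the rest). Of about 69,000 compounds tested this way, about 1,000 (1.5%) reached 50% or more in at least one test.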

Results are given as percent effect. How 0% and 100% were set is not recorded. Most values in the screen are low, and negative values occur. Compounds were drawn at random from those tested, without regard to their results. Two or more numbers in one place are separate tests of the same structure; such repeats can differ widely. A dash means the value is not listed here; it may have been measured.

| # | SMILES | A | B | C | D | E | F |
|---|---|---|---|---|---|---|---|
| 1 | `CC[C@@H](C)[C@@H](N)C(=O)Nc1cccc(-c2cnc(N(C)C)nc2)c1` | -6.501 | 4.408 | - | 8.571 | 11.3 | 21.3 & -16.01 |
| 2 | `COCC1CC2(CCN(c3ccc(C)nn3)CC2)CN1C(C)C.O=C(O)C(F)(F)F` (centres unmarked) | - | - | - | - | - | 5.85 |
| 3 | `CC(C)n1c(=O)nc2n1C(=O)N(c1ccc(Cl)cc1)C2` | -6.612 | 2.037 | 2.451 | 13.16 | 0.5848 | -1.156 |
| 4 | `COCCn1cc(C(=O)N2CCCC2c2cccs2)c2ccccc21` (centres unmarked) | -7.532 | 0.4081 | 6.075 | 13.89 | 1.02 | -15.05 |
| 5 | `CNC(=O)c1ccc(C2CN(CC(=O)N(C)C)CCO2)nc1` (centres unmarked) | -23.37 | 1.073 | -8.683 | 14.18 | 4.651 | -18.85 |
| 6 | `c1nc(N2CCCC(Cn3cncn3)C2)c2sccc2n1` (centres unmarked) | -11.26 | 1.226 | -1.183 | 7.018 | 2.579 | 43.58 |
| 7 | `O=S(=O)(CCSc1nccn1C1CC1)c1ccccc1` | -8.721 | 1.281 | 1.025 | 10.17 | 4.39 | 10.81 |
| 8 | `CCOCCC(=O)NC(Cc1ccc(C)cc1)c1ccccn1` (centres unmarked) | 2.66 | 0.1317 | -3.771 | 16.13 | 2.041 | 16.59 |
| 9 | `O=C(CCc1nccs1)N1CCC(C(=O)O)(c2ccccc2)CC1` | 5.998 | 2.195 | -3.815 | 15.52 | 6.806 | -15.81 |
| 10 | `CC(C)=CCN1C[C@H]2CC[C@@H]1CN(C(=O)c1ccc3[nH]cnc3c1)C2` | -4.929 | 4.492 | -5.644 | 12.5 | -4.831 | - |
| 11 | `[H][C@]12CCN(C(=O)c3ccncc3F)[C@@]1([H])CC[C@@H](COCC)O2` | - | - | - | - | - | 2.625 |
| 12 | `CC(C)n1cnnc1CN(C)C(=O)c1cnn2ccccc12` | -2.893 | 5.805 | -5.946 | 2.655 | -4 | 26.99 |
| 13 | `CS(=O)(=O)N1CCC(OCCCc2ccccc2)C1` (centres unmarked) | -10.52 | -4.431 | -0.55 | 2.521 | 7.843 | -16.08 |
| 14 | `CS(=O)(=O)NC1CCN(C(=O)NCc2cc[nH]n2)CC1` | -25.02 | 2.357 | -10.34 | 6.25 | 4.046 | -6.518 |
| 15 | `CC(C)CN(CC(C)C)Cn1ncc2cn(-c3ccccc3)nc2c1=O` | -1.332 | -0.9383 | 0.6744 | 7.853 | 3.743 | 32.07 |
| 16 | `O=C(c1ccccc1)N1CCN(CC2CCOc3ccccc3C2)CC1` (centres unmarked) | -8.454 | 5.517 | -5.06 | 6.849 | 4.95 | -24.18 |
| 17 | `c1cncc(C[C@@H]2CC[C@H](CN3CCCOCC3)O2)c1` | -8.058 | 3.277 | -1.342 | 3.279 | -0.4292 | 26.99 |
| 18 | `COc1ccccc1N1CCN(Cc2nc(C)c(C)o2)CC1` | -9.386 | 2.087 | -0.8256 | 9.167 | 3.947 | -5.297 |
| 19 | `Cc1ccc(C)c2c(C)c(C(=O)NCCC(=O)N3CCOCC3)oc12` | 2.209 | 1.374 | -2.785 | 17.54 | 2.521 | 34.81 |
| 20 | `O=c1c2sccc2nc2n1CCN(Cc1ccc(F)c(F)c1)CC2` | -14.92 | 2.077 | - | 18 | 8.989 | - |
| 21 | `Cc1noc(C2CCN(Cn3cc(Br)cn3)CC2)n1` | -12.41 | 8.875 | -1.088 | 15.93 | 5.357 | 12.61 |
| 22 | `CN(C)[C@@H]1CCN(C(=O)Cc2ccc(F)cc2)[C@H]1Cc1ccncc1` | 4.314 | 1.008 | -0.4691 | 0 | 0 | - |
| 23 | `COCC1CCN(CCCc2cccc(OC)c2)CC1` | -1.167 | 0.5745 | 10.47 | 3.226 | 3.247 | -4.035 |
| 24 | `Cc1csc(Nc2cc(C3CN(C(C)C)C3)nc(C)n2)n1` | -23.57 | 0.1191 | -5.99 | 7.143 | 8.046 | -11.18 |
| 25 | `Cn1cccc1C(=O)N1CC[C@H]2[C@H]1CCN2CC1CC1` | 11.05 | 1.408 | -3.735 | 19.3 | 0 | - |
| 26 | `COCc1nccc(C2CCCN(Cc3cccc(F)c3)C2)n1` (centres unmarked) | -0.2116 | 4.197 | 1.971 | 11.4 | 20.69 | 3.456 |
| 27 | `CC(C)Nc1nc2c(c(NC3CC3)n1)CCN(Cc1nccn1C)CC2` | 1.012 | 3.989 | 2.013 | 20 | 9.195 | - |
| 28 | `O=C(O)C(F)(F)F.O=C(O)C(F)(F)F.[H][C@]12C[C@@H](C(=O)NC)CO[C@@]1([H])CCN(Cc1ccc3ccccc3n1)C2` | - | - | - | - | - | 6.354 |
| 29 | `CC(C)NC(=O)NC[C@H]1OC[C@@H](NCc2ccc(S(C)(=O)=O)cc2)[C@@H]1O` | -11.85 | 2.64 | 3.253 | 19.44 | -1.493 | 8.129 |
| 30 | `Cc1ccc(N2CCCN(C(=O)c3cn(C)c4ccccc34)CC2)nn1` | -1.187 | 0.9042 | -2.189 | 4.959 | 2.041 | 20.61 |
| 31 | `CC(C(=O)N1CCN(CCOc2ccccc2)CC1)n1cc(Cl)cn1` (centres unmarked) | 4.628 | 1.833 | 0.4036 | 15.15 | -1.087 | 12.42 |
| 32 | `COc1cccc(S(=O)(=O)NC(=O)CCC2CCCO2)c1` (centres unmarked) | -25.79 | -0.3176 | -5.932 | 9.649 | 3.198 | 11.52 |
| 33 | `CO[C@@H]1CCN(C(=O)Cc2ccsc2)[C@H]1Cc1cccnc1.O=C(O)C(F)(F)F` | - | - | - | - | - | -17.29 |
| 34 | `CCN(Cc1ccc2c(c1)OCCO2)C(=O)NCc1csc(C)n1` | -0.3301 | 6.219 | 1.871 | 8.264 | -4.202 | 12.54 |
| 35 | `O=C(O)c1cccnc1N1CCN(Cc2ccc(F)cc2)C(CCO)C1` (centres unmarked) | 1.841 | 1.259 | 1.256 | -6.25 | 2.532 | -18.6 |
| 36 | `CCc1nc2n(n1)CC(NCc1cnc(N(CC)CC)s1)CC2` (centres unmarked) | 1.343 | 5.854 | -6.914 | 5.208 | 6.077 | 0.273 |
| 37 | `Cc1nc(C)n(C2CCCN(C(=O)c3cccnc3NC(C)C)C2)n1` (centres unmarked) | -11.68 | 3.845 | -0.08136 | 3.306 | -3.361 | 16.76 |
| 38 | `Cc1cnn(CCNCc2ccc(F)cc2Cl)c1` | 0.2326 | 4.534 | 0.8746 | 15.38 | 2.682 | 18.72 |
| 39 | `Fc1cccc(N2CCCC3(CN(Cc4ccco4)CCO3)C2)c1` (centres unmarked) | -2.874 | 1.59 | -2.654 | 21 | 15.31 | - |
| 40 | `CCN(CC(=O)Nc1cc(Cl)ccc1C)C(=O)c1ccc(=O)[nH]n1` | 10.67 | 7.718 | -5.059 | 15.04 | -7.522 | 15.64 |
| 41 | `O=C(O)C(F)(F)F.[H][C@@]12CN(c3nnc(C)s3)C[C@@H](C(=O)NCC3CC3)[C@]1([H])CCO2` | - | - | - | - | - | -0.4896 & -13.59 |
| 42 | `Cc1ccc(C(=O)N2CCN(CC(C)O)CC2)cc1S(C)(=O)=O` (centres unmarked) | -10.69 | 0.3026 | -5.616 | 13.56 | 3.429 | 26.64 |
| 43 | `CCOCc1ccccc1NC(=O)NC1CCN(C2CCCC2)C1` (centres unmarked) | -10.42 | 3.15 | -2.328 | 12.82 | 0.5618 | -2.945 |
| 44 | `Cc1noc(CNc2c(N3CCCC3)cccc2N2CCCC2)n1` | -3.669 | 2.658 | 6.278 | 6.667 | 8.671 | 45.54 |
| 45 | `O=C(O)C(F)(F)F.O=C1COC2(CCN(C(=O)c3ccoc3)CC2)CN1Cc1ccccn1` | - | - | - | - | - | 20.59 |
| 46 | `c1cncc(CNC2CCc3ncnn3C2)c1` (centres unmarked) | 9.599 | -3.403 | 37.08 | 22.22 | 4.274 | -30.83 |
| 47 | `Cc1nccn1-c1ccc(N2CCC(NC(C)CC(C)C)CC2)cc1` (centres unmarked) | -6.535 | 1.513 | -1.859 | 3.125 | 6.704 | -3.805 |
| 48 | `COCCc1noc(CN2CCc3nn(C(C)C)c(=O)cc3C2)n1` | 14.31 | -5.314 | -2.827 | 19.7 | 3.788 | 5.4 |
| 49 | `CC(NC(=O)c1ccc2c(c1)OCC(=O)N2)c1ccccc1F` (centres unmarked) | -4.251 | -0.7181 | 3.021 | 7.576 | 1.515 | 33.97 |
| 50 | `Cc1cc(N(C)C)nc(N2CCCC2c2ccccn2)n1` (centres unmarked) | 6.398 | 6.159 | 0.7342 | 20.41 | 13 | 21.54 |
| 51 | `Cc1cnn(CC2CCCN2C(=O)c2c(C)noc2C)c1` (centres unmarked) | 7.736 | 1.429 | -10.67 | 14.91 | 6.358 | 23.28 |
| 52 | `Cc1noc(C)c1Cn1cc(I)cc(C)c1=O` | -2.61 | 1.148 | 1.122 | 17.24 | 1.571 | 17.13 |
| 53 | `N#Cc1cccc(S(=O)(=O)N2CC(CC(=O)O)c3ccccc32)c1` (centres unmarked) | -5.852 | 4.859 | 1.498 | 11.86 | 3.415 | 4.67 |
| 54 | `O=c1[nH]cnc2[nH]c(N3CCCCC3)nc12` | 11.39 | 0.04573 | -2.202 | 21.84 | 13.4 | 26.98 |
| 55 | `Cc1ccc(N2CC[C@@]3(O)CCN(S(C)(=O)=O)C[C@H]3C2)nn1` | 11 | 2.471 | -2.714 | -1.961 | 2.469 | - |
| 56 | `Cc1ccc(NC2CCN(C(=O)COCC(F)(F)F)CC2)nn1` | 0.1524 | -7.573 | -1.657 | 5.405 | 9.398 | -18.01 |

Once more, the final 3:

{"smiles": "O=c1[nH]cnc2[nH]c(N3CCCCC3)nc12", "A": 11.39, "B": 0.04573, "C": -2.202, "D": 21.84, "E": 13.4, "F": 26.98}
{"smiles": "Cc1ccc(N2CC[C@@]3(O)CCN(S(C)(=O)=O)C[C@H]3C2)nn1", "A": 11, "B": 2.471, "C": -2.714, "D": -1.961, "E": 2.469}
{"smiles": "Cc1ccc(NC2CCN(C(=O)COCC(F)(F)F)CC2)nn1", "A": 0.1524, "B": -7.573, "C": -1.657, "D": 5.405, "E": 9.398, "F": -18.01}